Test results from CN116535503A.
No constants are given. Whether binding was seen depends on the method and setting. Some results given as binding are weak or reduced against the parent protein; the word gives no strength.

Biological target: T1, GDF15-mFC蛋白(GDF15:Genbank登记号NM_004864.3;mFC:Genbank登记号AAH31470.1) (human; mouse) (UniProt Q99988)
T1 sequence (looked up): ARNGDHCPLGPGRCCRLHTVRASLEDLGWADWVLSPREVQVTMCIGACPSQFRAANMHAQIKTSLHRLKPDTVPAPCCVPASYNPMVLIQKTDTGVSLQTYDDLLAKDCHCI
Assay: competitive ELISA: blocks GDF15-mFc binding to coated GFRAL-HIS

binding: binds
B1: 53E5(hz) (antibody, human IgG1, kappa, V domains shown)
VH: QVQLQESGPGLVKPSETLSLTCTFSGFSLSTSGMGVGWIRQPPGKGLEWLAHILWDDVKRYNPALKSRLTISKDSSKSQISLKLSSVTAADTAVYYCVQMAWDWFAYWGQGTTVTVSS
VL: DIQMTQSPSSLSASVGDRVTITCKASQNVDTNVAWYQQKPGQSPKALIYSASYRSSGVPSRFSGSGSGTDFTLTISSLQPEDFATYYCQQYHSYPTFGQGTRLEIKR
